No constants are given. Whether binding was seen depends on the method and setting. Binding seen in cells or lysates may run through a third protein. Binding calls can cover weak binding; strength is not graded here. One block for each binder: values may come before it.
Tests used:
[1] = target: Cysteine‐rich secretory protein 2 (pig (endogenous in boar spermatozoa)); experiment: proximity ligation; direct in situ PLA (oligonucleotide-conjugated primary antibodies, Duolink Probemaker) with anti-ACRBP and anti-CRISP2; NC, CAP and II boar sperm fixed in 4% PFA, permeabilised in cold acetone for 10 min
[2] = target: Cysteine‐rich secretory protein 2 (pig (endogenous in boar spermatozoa)); experiment: co-IP; anti-CRISP2 cross-linked to protein A/G magnetic beads, lysates of non-capacitated (NC), capacitated (CAP) and ionophore-induced (II) boar sperm, overnight at 4°C, three washes; eluates by western blot with anti-acrosin, anti-ACRBP, anti-CRISP2

binding [1]: binds | binding [2]: binds
B1: Acrosin binding protein, 60 kDa form (ACRBP) (protein, UniProt Q29016 26-539)
chain: QDANSASTPGSPLSPTEYERFFALLTPTWKAETTCRLRATHGCRNPTLVQLDQYENHGLVPDGAVCSDLPYASWFESFCQFTQYRCSNHVYYAKRVRCSQPVSILSPNSLKEVDTSSEVPITTMTSPVSSHITATGRQVFQPWPERLNNNVEELLQSSLSLGGQEQGQEHKQEHKQEQGQEHKQDEGQEQEEQEEEQEEEGKQEEGQGTEESLEAMSGLQADSEPKFQSEFVSSNPFSFTPRVREVESTPMMMENIQELIRSAQEMDEMGDVYEEENIWRAQSPGSLLQLPHVDALLVLCYSIVENTCVITPTAKAWQYLEDETLGFGKSVCDSLGRRHLAACSLCDFCSLKLEQCHSETNLQRQQCDNSHKTPFISPLLASQSMSIGTQIGTLKSGRFYGLDLYGGLRMDFWCARLATKGCEDNRVASWLQTEFLSFQDGDFPTKICDTEYVQYPNYCAFKSQQCMMRNRDRKVSRMRCLQNETYTVLTQAKSEDLVLRWSQEFSTLTLGQAG

binding [2]: binds
B2: proacrosin (∼53 kDa) (protein, UniProt P08001 17-415)
chain: RDNATCDGPCGLRFRQKLESGMRVVGGMSAEPGAWPWMVSLQIFMYHNNRRYHTCGGILLNSHWVLTAAHCFKNKKKVTDWRLIFGANEVVWGSNKPVKPPLQERFVEEIIIHEKYVSGLEINDIALIKITPPVPCGPFIGPGCLPQFKAGPPRAPQTCWVTGWGYLKEKGPRTSPTLQEARVALIDLELCNSTRWYNGRIRSTNVCAGYPRGKIDTCQGDSGGPLMCRDRAENTFVVVGITSWGVGCARAKRPGVYTSTWPYLNWIASKIGSNALQMVQLGTPPRPSTPAPPVRPPSVQTPVRPPWYFQRPPGPSQQPGSRPRPPAPPPAPPPPPPPPPPPPPPPPPPPQQVSAKPPQALSFAKRLQQLIEALKGTAFSSGRSYYETETTDLQELPAS
